These are yes or no findings as the source states them, for the method shown. For part of these data: A result given as binding can be weak or reduced; the word gives no strength. For part of these data: In cells and extracts the contact can be indirect. For part of these data: Sequences can lack the tags named with a protein.

Assay [1] deals with T1, GFP-tagged full length MEIOK21 (mouse) (UniProt Q6DIA7).
T1 sequence: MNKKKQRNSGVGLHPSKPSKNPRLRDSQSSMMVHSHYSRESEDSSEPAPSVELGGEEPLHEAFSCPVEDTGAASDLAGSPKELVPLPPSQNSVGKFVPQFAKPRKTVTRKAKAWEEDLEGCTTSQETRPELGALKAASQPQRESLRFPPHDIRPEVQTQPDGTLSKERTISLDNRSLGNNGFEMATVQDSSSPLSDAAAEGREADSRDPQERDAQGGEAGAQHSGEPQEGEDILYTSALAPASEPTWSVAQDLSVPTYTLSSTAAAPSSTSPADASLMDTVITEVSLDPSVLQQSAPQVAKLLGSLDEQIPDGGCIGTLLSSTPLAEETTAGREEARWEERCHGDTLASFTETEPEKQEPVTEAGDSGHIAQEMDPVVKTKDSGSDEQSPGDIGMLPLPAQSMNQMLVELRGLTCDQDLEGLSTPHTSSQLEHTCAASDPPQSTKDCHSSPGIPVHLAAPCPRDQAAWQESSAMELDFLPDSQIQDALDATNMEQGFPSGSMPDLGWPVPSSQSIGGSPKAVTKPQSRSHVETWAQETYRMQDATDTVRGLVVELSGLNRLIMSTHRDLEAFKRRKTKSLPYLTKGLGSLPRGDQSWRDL
Put plainly: co-IP; FLAG-tagged HSF2BP and GFP-tagged MEIOK21 (full length or truncations) co-transfected into HEK-293T cells, lysed after 48 hours, precipitated with GFP antibody; IgG as control.

Assay [2] addresses HSF2BP N-terminal domain, yeast two-hybrid construct (mouse). Briefly: two-hybrid; MEIOK21 in pGADT7 as prey, partners in pGBKT7 as bait, co-transformed into Y2H gold strain; tested on SD-Leu-Trp-His plates.
Assay [3] concerns the target HSF2BP C-terminal domain, yeast two-hybrid construct (mouse). The description is as above.

“FLAG-tagged HSF2BP C-terminal domain (mouse) (domain or fragment)”: in assay [1], the binding entry was “no binding”.

B1: MEIOK21 (meiosis-specific 4930432K21RIK), yeast two-hybrid prey (protein, UniProt Q6DIA7-1 1-600)
chain: MNKKKQRNSGVGLHPSKPSKNPRLRDSQSSMMVHSHYSRESEDSSEPAPSVELGGEEPLHEAFSCPVEDTGAASDLAGSPKELVPLPPSQNSVGKFVPQFAKPRKTVTRKAKAWEEDLEGCTTSQETRPELGALKAASQPQRESLRFPPHDIRPEVQTQPDGTLSKERTISLDNRSLGNNGFEMATVQDSSSPLSDAAAEGREADSRDPQERDAQGGEAGAQHSGEPQEGEDILYTSALAPASEPTWSVAQDLSVPTYTLSSTAAAPSSTSPADASLMDTVITEVSLDPSVLQQSAPQVAKLLGSLDEQIPDGGCIGTLLSSTPLAEETTAGREEARWEERCHGDTLASFTETEPEKQEPVTEAGDSGHIAQEMDPVVKTKDSGSDEQSPGDIGMLPLPAQSMNQMLVELRGLTCDQDLEGLSTPHTSSQLEHTCAASDPPQSTKDCHSSPGIPVHLAAPCPRDQAAWQESSAMELDFLPDSQIQDALDATNMEQGFPSGSMPDLGWPVPSSQSIGGSPKAVTKPQSRSHVETWAQETYRMQDATDTVRGLVVELSGLNRLIMSTHRDLEAFKRRKTKSLPYLTKGLGSLPRGDQSWRDL
As for B1, the binding entry in assay [2] is listed as “binds”; in assay [3] it was “no binding”.

For the origin of these results see PMC7337969.
